{"source": "the supplement of paper PMC12819154", "about": "“High-throughput peptide-centric local stability assay extends protein–ligand identification to membrane proteins, tissues and bacteria” (Nature Structural & Molecular Biology, 2025)", "target": "HSP90AA2P (UniProt Q14568)", "experiment": "log2 fold change of tryptic peptide abundance, ligand vs vehicle (limited proteolysis) (log2 ratio); higher = more trypsin-susceptible (destabilized)", "details": "peptide sequence: NLTNDWEDHLAVK; peptide start residue: 314; ligand concentration: 5 uM; sample: K562 cleared lysate", "note": "This is one part of the list. Small differences around the control level are noise.", "data": [{"compound": "Cc1nc(Nc2ncc(C(=O)Nc3c(C)cccc3Cl)s2)cc(N2CCN(CCO)CC2)n1", "note": "[dasatinib]", "values": [{"measurement": "log2 fold change", "value": -0.383}]}]}
